Data on 40 compounds can be found in publication PMC12431657, “Discovery and mechanistic insights of dibenzoylmethane as a broad spectrum inhibitor of coronavirus” (PLOS Pathogens, 2025).

The assay concerns HCoV-229E. On the set-up: species or system Huh-7; HTS, protection from HCoV-229E induced cell death, luminescent cell viability (CellCounting-Lite 2.0), inhibition rate. The conditions noted are these: 24 h post infection, 1 h compound pre-incubation, 10 µM, inhibitor.

Molecules are shown by their SMILES. Structures can show the parent of a compound that is named as a salt. Where two headings read alike, the source gives them in different places. The campaign covered roughly 3,300 compounds. About 95 (3%) showed an effect of 50% or more. Some of the results follow.

In the case of `C[C@@H]1CC[C@]2(C(=O)O[C@@H]3O[C@H](CO)[C@@H](O)[C@H](O)[C@H]3O)CC[C@]3(C)C(=CC[C@@H]4[C@@]5(C)CC[C@H](O)[C@@](C)(CO)[C@@H]5CC[C@]43C)[C@@H]2[C@]1(C)O` [Pedunculoside], the “229E Inhibition rate” value worked out at 10.8%.

For `CCCCCCCCCCCCCCCCCCOC(=O)[C@@]1(C)CC[C@]2(C)CC[C@]3(C)C(=CC(=O)[C@@H]4[C@@]5(C)CC[C@H](O)C(C)(C)[C@@H]5CC[C@]43C)[C@@H]2C1` [Stearyl glycyrrhetinate], the “229E Inhibition rate” value came to 12.1%.

Take `Cc1cc(O)c2c(c1)C(=O)c1cccc(O[C@@H]3O[C@H](CO)[C@@H](O)[C@H](O)[C@H]3O)c1C2=O` [Chrysophanol 8-O-glucoside]: the “229E Inhibition rate” value is reported as 8.4%.

Regarding `COc1cccc(CC(=O)O)c1` [3-Methoxyphenylacetic acid], the “229E Inhibition rate” value was 12.5%.

With `O=C(O)CCc1ccccc1` [Hydrocinnamic acid], the “229E Inhibition rate” value was 12.3%.

`O=C(O)/C=C\C(=O)O` [Maleic Acid]: the “229E Inhibition rate” value was 11%.

In the case of `CC1(C)CCC[C@]2(C)[C@@H](C=O)C(C=O)=CC[C@@H]12` [Polygodial], the “229E Inhibition rate” value was determined as 16.5%.

As to `O=C(O)[C@@H]1CCCCN1` [L-Pipecolic acid], the “229E Inhibition rate” value is given as 10.8%.

For `Oc1ccc([C@H]2Oc3cc(O)cc(O)c3C[C@@H]2O)cc1` [(+)-Afzelechin], the “229E Inhibition rate” value amounted to 9.4%.

For `O=c1cc(-c2ccc(O)cc2)oc2cc(O)c(O)c(O)c12` [Scutellarein], the “229E Inhibition rate” value amounted to 21.2%.

For `Cc1cc(C)c(O)c(C)c1` [2,4,6-Trimethylphenol], the “229E Inhibition rate” value came to 22.3%.

As to `CO[C@H]1[C@H](O)[C@@H](O)[C@@H](O)[C@H](O)[C@@H]1O` [D-Pinitol], the “229E Inhibition rate” value is recorded as 9.1%.

Regarding `COc1ccc2cc3[n+](cc2c1OC)CCc1cc2c(cc1-3)OCO2` [Berberine (chloride)], the “229E Inhibition rate” value (229E Inhibition rate, 24 h) is on record as 12.1%.

`O=c1c2cc(O)c(O)cc2oc2c([C@@H]3O[C@H](CO)[C@@H](O)[C@H](O)[C@H]3O)c(O)cc(O)c12` [Isomangiferin]: the “229E Inhibition rate” value worked out at 6%.

For the compound `O=C(O)c1ccc(C(=O)O)o1` [2,5-Furandicarboxylic acid], the “229E Inhibition rate” value was determined as 7.6%.

Turning to `CCOCc1ccccc1` [(Ethoxymethyl)benzene], the “229E Inhibition rate” value was found to be 13.6%.

For `O=C(O)c1cccnc1C(=O)O` [Quinolinic acid], the “229E Inhibition rate” value came out at 13.4%.

Take `O=C(O)c1ccccc1` [Benzoic acid]: the “229E Inhibition rate” value turned out to be 11.6%.

As to `O=c1ccc2cc(O)ccc2o1` [6-Hydroxycoumarin], the “229E Inhibition rate” value was found to be 10.6%.

Regarding `O=C(O)/C=C/c1ccccc1` [trans-Cinnamic acid], for the setting “229E Inhibition rate, 24 h”, the “229E Inhibition rate” value is given as 18.6%.

With `Cn1cc(C(N)=O)ccc1=O` [Nudifloramide], the “229E Inhibition rate” value is 9.5%.

Consider `COc1cc2c(cc1OC)[C@@H]1Cc3ccc(OC)c(OC)c3C[N@@+]1([O-])CC2` [(-)-Corynoxidine], for which the “229E Inhibition rate” value amounted to 22.2%.

As for `COc1cc(O)c2c(=O)c3c(O[C@@H]4O[C@H](CO)[C@@H](O)[C@H](O)[C@H]4O)ccc(O)c3oc2c1` [Swertianolin], the “229E Inhibition rate” value was determined as 6.8%.

Take `CC(CC(=O)O)CC(=O)O` [3-Methylglutaric acid]: the “229E Inhibition rate” value is recorded as 5.4%.

With `N[C@H]1[C@H](O[C@H]2[C@H](O)[C@@H](N)C(O)O[C@@H]2CO)O[C@H](CO)[C@@H](O)[C@@H]1O` (stereo partly shown) [Chitobiose (dihydrochloride)], the “229E Inhibition rate” value is given as 11.5%.

On to `CCCCCCCCCCCC(=O)OC` [Methyl laurate], for which the “229E Inhibition rate” value came out at 7.9%.

With `CC(C)=CCC[C@](C)(O)[C@@H]1CC=C(C)CC1` [alpha-Bisabolol], the “229E Inhibition rate” value (229E Inhibition rate, 24 h) is listed as 45.5%.

On to `Cc1ccn(C)n1` [1,3-Dimethylpyrazole], for which the “229E Inhibition rate” value was 10.9%.

Take `C[C@H](CC[C@@H](O[C@@H]1O[C@H](CO[C@@H]2O[C@H](CO)[C@@H](O)[C@H](O)[C@H]2O)[C@@H](O)[C@H](O)[C@H]1O[C@@H]1O[C@H](CO)[C@@H](O)[C@H](O)[C@H]1O)C(C)(C)O)[C@H]1CC[C@@]2(C)[C@@H]3CC=C4[C@@H](CC[C@H](O[C@@H]5O[C@H](CO)[C@@H](O)[C@H](O)[C@H]5O)C4(C)C)[C@]3(C)[C@H](O)C[C@]12C` [Siamenoside I]: the “229E Inhibition rate” value came to 25.3%.

For the compound `CCCCCCCCCCCCC/C=C/[C@@H](O)[C@@H](N)COP(=O)(O)O` [Sphingosine-1-phosphate], the “229E Inhibition rate” value was determined as 19.6%.

Turning to `CC1(C)[C@@H](O[C@H]2O[C@H](C(=O)O)[C@@H](O)[C@H](O)[C@H]2O[C@@H]2O[C@H](C(=O)O)[C@@H](O)[C@H](O)[C@H]2O)CC[C@]2(C)[C@H]3C(=O)C=C4[C@@H]5C[C@@](C)(C(=O)O)CC[C@]5(C)CC[C@@]4(C)[C@]3(C)CC[C@@H]12` [Dipotassium glycyrrhizinate], the “229E Inhibition rate” value (229E Inhibition rate, 24 h) is 8.5%.

With `Cc1cc(O)c2c(c1)C(=O)c1cc(O)cc(O[C@@H]3O[C@H](CO)[C@@H](O)[C@H](O)[C@H]3O)c1C2=O` [Emodin-8-glucoside], the “229E Inhibition rate” value stood at 7.8%.

On to `COc1cc2oc(=O)ccc2cc1O` [Isoscopoletin], for which the “229E Inhibition rate” value was 0%.

For the compound `N[C@H]1C(O)O[C@H](CO)[C@@H](O)[C@@H]1O` (stereo partly shown) [Glucosamine (hydrochloride)], the “229E Inhibition rate” value (229E Inhibition rate, 24 h) amounted to 9.7%.

With `COC(=O)c1ccco1` [Methyl 2-furoate], the “229E Inhibition rate” value was determined as 0%.

In the case of `COC1=CC(=O)C=C(OC)C1=O` [2,6-Dimethoxy-1,4-benzoquinone], the “229E Inhibition rate” value turned out to be 4.1%.

Turning to `OC[C@H]1O[C@@H](Oc2cc(O)cc(/C=C/c3ccc(O)c(O)c3)c2)[C@H](O)[C@@H](O)[C@@H]1O` [Astringin], the “229E Inhibition rate” value is 40.4%.

Regarding `CC(C)=CCC[C@@](C)(O)[C@H]1CC[C@]2(C)[C@@H]1[C@H](O)C[C@@H]1[C@@]3(C)CC[C@H](O[C@@H]4O[C@H](CO)[C@@H](O)[C@H](O)[C@H]4O[C@@H]4O[C@H](CO)[C@@H](O)[C@H](O)[C@H]4O[C@@H]4OC[C@@H](O)[C@H](O)[C@H]4O)C(C)(C)[C@@H]3CC[C@]12C` [Notoginsenoside Ft1], the “229E Inhibition rate” value is 4.8%.

Regarding `COc1cc(/C=C/C(=O)O)ccc1O` [Ferulic acid], the “229E Inhibition rate” value (229E Inhibition rate, 24 h) stood at 13.6%.

Regarding `O=C1O[C@H]([C@@H](O)CO)[C@H](O)[C@@H]1O` [L-Gulono-1,4-lactone], the “229E Inhibition rate” value is 7.2%.
